Data on 20 sequences can be found in the DeepSol protein solubility set.

The data set can be described thus: soluble on expression in E. coli; label from the status in PepcDB or PDB records.

With “MSLHLGHSLEAMAKEAESKGKIYEKILRALKAGESKGGDRRGKQSAAIIVVKTVDKSEKEIDPLIVGKYVDLRVDDSQDPLKDLERLLDLWVATFIEEEMVNVKDYENQIRQALNKWGYNDLRTWVEMNNLEGKYTGDKIGKTVLKILLSKEEGHHHHHH”, the “soluble on expression in E. coli” value is “soluble”.

Regarding “SESEMETQSARAEEGFTQVTRKGGRRAKKRQAEQLSAAGEGGDAGRMDTEEARPAKRPVFPPLCGDGLLSGKEETRKIPVPANRYTPLKENWMKIFTPIVEHLGLQIRFNLKSRNVEIRTCKETKDVSALTKAADFVKAFILGFQVEDALALIRLDDLFLESFEITDVKPLKGDHLSRAIGRIAGKGGKTKFTIENVTRTRIVLADVKVHILGSFQNIKMARTAICNLILGNPPSKVYGNIRAVASRSADRF”, the “soluble on expression in E. coli” value is recorded as “soluble”. Turning to “SAHNPNMTHLKINLPVTALPPLWVRCDSSDPEGTCWLGAELITTNNSITGIVLYVVSCKADKNYSVNLENLKNLHKKRHHLSTVTSKGFAQYELFKSSALDDTITASQTAIALDISWSPVDEILQIPPLSSTATLNIKVESGEPRGPLNHLYRELKFLLVLADGLRTGVTEWLEPLEAKSAVELVQEFLNDLNKLDGFGDSTKKDTEVETLKHDTAAVDRSVKRLFKVRSDLDFAEQLWCKMSSSVISYQDLVKCFTLIIQSLQRGDIQPWLHSGSNSLLSKLIHQSYHGTMDTVSLSGTIPVQMLLEIGLDKLKKDYISFFIGQELASLNHLEYFIAPSVDIQEQVYRVQKLHHILEILVSCMPFIKSQHELLFSLTQICIKYYKQNPLDEQHIFQLPVRPTAVKNLYQSEKPQKWRVEIYSGQKKIKTVWQLSDSSPIDHLNFHKPDFSELTLNGSLEERIFFTNMVTCSQVHFK”, the “soluble on expression in E. coli” value is given as “not soluble”.

“MASAGDSILALTGKRTTGQGIRSQNVTAAVAIANIVKSSLGPVGLDKMLVDDVGDVIVTNDGATILKQLEVEHPAGKVLVELAQLQDEEVGDGTTSVVIVAAELLKRADELVKQKVHPTTIINGYRLACKEAVKYISENISFTSDSIGRQSVVNAAKTSMSSKIIGPDADFFGELVVDAAEAVRVENNGKVTYPINAVNVLKAHGKSARESVLVKGYALNCTVASQAMPLRVQNAKIACLDFSLMKAKMHLGISVVVEDPAKLEAIRREEFDITKRRIDKILKAGANVVLTTGGIDDLCLKQFVESGAMAVRRCKKSDLKRIAKATGATLTVSLATLEGDEAFDASLLGHADEIVQERISDDELILIKGPKSRTASSIILRGANDVMLDEMERSVHDSLCVVRRVLESKKLVAGGGAVETSLSLFLETYAQTLSSREQLAVAEFASALLIIPKVLASNAARDSTDLVTFLRA”: the “soluble on expression in E. coli” value is listed as “not soluble”. The result for “MCTEQKPNLLKLSQLKMVLRALGYDPRNSKVQEMTRKIKDGRSMVMGWHGEKDYMDVDELWNALQSKDDEGDSTEDKVTTEMRSAFKLFDPESKGTITVANLKMVAKELGETLADADFDEMIREAGGDNNTGINEQQFFEIMKKTCLY” reads “not soluble”; that for “MSLKSRHDKAINGAKISASSILENARKESETLKKEALLEAKEENQKYRSEIESELKESRLELKSQENRLIQREQTLDRKDDSLEKREGSLEEKEEKLGARQQLIDEREKEVENLINQQHQELERIASLSKEEAKSIIMKSTEEELNHELTLMVKESEQRAKEESDRKAKNLLSLAIQRCAADSVSETTVSVVTLPNDEMKGRIIGREGRNIRTLETLTGIDLIIDDTPEAVVLSGFDPIRREIARMTLEKLIQDGRIHPARIEEMVEKSRKEMDERIREYGEQAAFEVGAHTLHPDLIKILGRLRFRTSYGQNVLNHSIEVAKLAGVLAAELGEDVQLAKRAGLLHDIGKALDHEIEGSHVEIGAELAAKYKENSVVINAIASHHGDVEATSVISVLVAAADALSAARPGARSESLENYIRRLENLENISNSFEGVDSSFAVQAGREVRVMVKPEEISDLESVRLVRDIRKKIEDDLDYPGHIKVTVIRETRAVDYAKEGHHHHHH”, “soluble”; that for “MRKALITGASRGIGRAIALRLAEDGFALAIHYGQNREKAEEVAEEARRRGSPLVAVLGANLLEAEAATALVHQAAEVLGGLDTLVNNAGITRDTLLVRMKDEDWEAVLEANLSAVFRTTREAVKLMMKARFGRIVNITSVVGILGNPGQANYVASKAGLIGFTRAVAKEYAQRGITVNAVAPGFIETEMTERLPQEVKEAYLKQIPAGRFGRPEEVAEAVAFLVSEKAGYITGQTLCVDGGLTPH”, “soluble”. The result for “MAMKSVAVLTKGMFGRIPAQLAVSSVPSNTIQKRSNYKFVGMPNETDGTLAGDLNYGLHNVFFTELFRGFGVMLGHVFMEPATINYPFEKGPLSSRFRGEHALRRYPSGEERCIACKLCEAICPAQAITIEAETRPDGSRRTTRYDIDMTKCIYCGLCQEACPVDAIVEGPNFEYSTETHEELLYNKEKLLLNGDRWEPELASNLQAEYLYR” reads “not soluble”; that for “MFTQKKSLQHTISQLEERIQELELELKQKDIEKQETISTIHDRVQSVVQEHQLVNNQHNTLQSLVQQLSSCFENVSTRTTHSNELNNEMLQKEQSLIQSIAEIIDCSNEGKESVHRLLIVINKLGEQSQRTSNSMNHLSERSKEIEQIVEVIQNIAAQTNLLALNASIEAARAGEHGKGFAVVANEVRKLAESTAESTKNIGNLTKKIQEEIEKAYDNTKDNLHLVDEGVEMSADTNARIENILVMIQTLQNGATNVIKAIENQKSCNDDILREFANTQQMFQKLNTTIMNHIHDAEKVDVQLSKSLQETVTS”, “not soluble”; that for “MSLSPQRDARLPVTVLSGFLGAGKTTLLNRILHNRDGLRVAVIVNDMSEVNIDAQLVREGGAALRRTEETLVEFSNGCICCTLRDDLLQEVRRLAEQGRYDYLLIESTGIAEPMPVAATFAVRDADGFSLSDIARLDTMVTVVDGSRFLEDFGSAATLADLGQQAGPDDTRGLVQLLGEQVEFADVLVISKCDRIDAQQLQRLRAVLRALNRDAAIVDAAHGEVPLQQLLDTGRFDFTRAQLAPGWMQELRGQHTPETEEYGISSFVYRARRPFHPQRFARMVHSGLPQVIRSKGFFWLASRMDWVGELSSVGGATQTSAAGFWFAARHRVDAQAVGQPLQTSITPLPYTDIGWQRQQTQCWTAPLPQPHEVGDASEYAAMQRLWHPLWGDRRQELAVIGVDMDAPRTRAVLDACLLSDQELRQGPAQWQLLDDPFPHWARLEHHHHHH”, “not soluble”. To “MRKTINCFIPYRESTAAEQTIHALKESSIVNKIYLLNIEPNKTLSTPEGCEILPVDSLTSSKTMKMIAEKADTPYILLYTKTSALELAYKALERMTDFLQDRECGMVYADHHEWKNGEKKKHPVNDYQPGSVRDDFDFGPLLIFNRTEFILASLQMTEEREYAALYELRLLLTLHSHLVHINEYLYTETESDNRLSGEKQFDYVNPRNREVQIEMEEAFTRYLKSINALLEPICVETDVKKGNFEYEASVIIPVRNRARTIDDAIRSALAQETRFPFNIIIVDNHSTDGTTEIIGQYKDNKAVIHLQPQRTDLGIGGCWDLAINHPRCGRFAIQLDSDDLYSDTHTLQTIVDTFYKEQCAMVIGTYRMTDFRLNTIAPGVIDHSEWTKENGHNNALRINGLGAPRAFFTPILRETGVPNVSYGEDYALGLIFSRQYKIGRIYDVLYLCRRWEGNSDAALSIEQTNANNHYKDSLRTRELGIRKKYTEELKNRNEIKRFIDSQLACWPLAHHNHEALQTIQTKELSINGYTFVVQCNAQRAVSTTAKVDKDSIQARPCFLCKENQPKEQKALETITANRICVNPYPILPDHLTIAHKDHIPQLMDENIFSYDDVRAFVQKYPDYALFYNGAHCGASAPDHLHLQGVRKTDVPIIPNVQQLITHAQTIDIRSMYFPYLEEEEDYPLECSRIYLNTKDYPCPLVILSSNTHYDDSLLYSALAAFPPDEDGQEAKFNLLLWKEGHLYYTVVFPRSKHRPDCYFAEGSEQMLISPGALDMAGVIVTTRQEDFDKITEEKVASIIKEVGITVEEAEKIPGRYFDEKAKR” belongs “not soluble”; to “MATRVLSMSARLGPVPQPPAPQDEPVFAQLKPVLGAANPARDAALFPGEELKHAHHRPQAQPAPAQAPQPAQPPATGPRLPPEDLVQTRCEMEKYLTPQLPPVPIIPEHKKYRRDSASVVDQFFTDTEGLPYSINMNVFLPDITHLRTGLYKSQRPCVTHIKTEPVAIFSHQSETTAPPPAPTQALPEFTSIFSSHQTAAPEVNNIFIKQELPTPDLHLSVPTQQGHLYQLLNTPDLDMPSSTNQTAAMDTLNVSMSAAMAGLNTHTSAVPQTAVKQFQGMPPCTYTMPSQFLPQQATYFPPSPPSSEPGSPDRQAEMLQNLTPPPSYAATIASKLAIHNPNLPTTLPVNSQNIQPVRYNRRSNPDLEKRRIHYCDYPGCTKVYTKSSHLKAHLRTHTGEKPYKCTWEGCDWRFARSDELTRHYRKHTGAKPFQCGVCNRSFSRSDHLALHMKRHQN”, “soluble”; to “MGKKQNKKKVEEVLEEEEEEYVVEKVLDRRVVKGKVEYLLKWKGFSDEDNTWEPEENLDCPDLIAEFLQSQKTAHETDKSEGGKRKADSDSEDKGEESKPKKKKEESEKPRGFARGLEPERIIGATDSSGELMFLMKWKNSDEADLVPAKEANVKCPQVVISFYEERLTWHSYPSEDDDKKDDKN”, “soluble”. Take “ASDEEIQDVSGTWYLKAMTVDREFPEMNLESVTPMTLTTLEGGNLEAKVTMLISGRCQEVKAVLEKTDEPGKYTADGGKHVAYIIRSHVKDHYIFYSEGELHGKPVRGVKLVGRDPKNNLEALEDFEKAAGARGLSTESILIPRQSETCSPGSAWSHPQFEK”: the “soluble on expression in E. coli” value is “soluble”.

Turning to “ALWQFNGMIKCKIPSSEPLLDFNNYGCYCGLGGSGTPVDDLDRCCQTHDNCYKQAMKLDSCKVLVDNPYTNNYSYSCSNNEITCSSENNACEAFICNCDRNAAICFSKVPYNKEHKNLDMMNC”, the “soluble on expression in E. coli” value is “soluble”. The result for “MPPCYPTMTVDQTTGAVTNQTEISWHSINWAKANREVKRLQVRIAKAVKEGRWGKVKALQWLLTHSFYGKALAVKRVTDNSGSKTPGVDGITWSTQEQKTQAIKSLRRRGYKPQPLRRVYIPKANGKQRPLGIPTMRDRAMQALYALALEPVAETTADRNSYGFRRGRSTADAAGQCFITLARADSATYVPDADISGCFDNISHEWLLANIPLDKEILRKWLKSGFVWKQQLFPTHAGTPQGGVISPILANMALDGMEELLNEALQKSQSPSHLEHHHHHH” reads “not soluble”. For the sequence “MQEGDEELYFHFKFPGTKTYIDPETYEDPNRAVHQFAKELDASCIKIERVIGAGEFGEVCSGRLKLPGKRDVAVAIKTLKVGYTEKQRRDFLCEASIMGQFDHPNVVHLEGVVTRGKPVMIVIEFMENGALDAFLRKHDGQFTVIQLVGMLRGIAAGMRYLADMGYVHRDLAARNILVNSNLVCKVSDFGLSRVIEDDPEAVYTTTGGKIPVRWTAPEAIQYRKFTSASDVWSYGIVMWEVMSYGERPYWDMSNQDVIKAIEEGYRLPAPMDCPAGLHQLMLDCWQKERAERPKFEQIVGILDKMIRNPNSAHHHHHH”, the “soluble on expression in E. coli” value was “soluble”. Turning to “MATGIVKWFNDAKGFGFITPDEGGEDLFAHFSAINMEGFKTLKEGQRVSFDVTTGPKGKQAANIQAA”, the “soluble on expression in E. coli” value was “soluble”. As for “MEYDNHLDTLGERNSYSKTDPDATFMHMKEDTMKNGQTKPGYNLQIGTENQFLIDFRLFPNPTDTLTLIPFFHSFEQRYNHLPTVGVADSGYGSEEGIRHRGRRCIEPEAVFGQMKHNMAYRRSGMWEKKRLQWTLHSLL”, the “soluble on expression in E. coli” value is on record as “not soluble”. “MSGEVWRWNKQAEMNSIRDCLKHCNSIAIDTEFPGCLKETPMDASDEIRYRDMKFNVDNTHLIQLGLTLFGKGITKTWEINLSDFNESKSLKNDKSIAFLKNNGLDLDKIREEGIGIEEFFMEFSQILNEKHGKMRWVTFQGSYDKAYLLKGLTRKPLPETSKEFDETVQQLLGRFVYDVKKMAGLCSGLSSRFGLQRIADVLQMRRVGKAHHAGSDSELTARVFTKLIFDLVNSRKESTGRRADDQQYQLEQQQHQQQLMMTRCYIPIPVQGRNYVL”: the “soluble on expression in E. coli” value was “soluble”.
